Measured values as given in article PMC8801937.
Residue numbers refer to the chain shown, from its start. Results are given in words; binding and its absence hold for the method and conditions named. Binding seen in cells or lysates may run through a third protein. Some entries that bind do so weakly or less than the wild type. For part of these data: Sequences can lack the tags named with a protein.

How the values were obtained:
[1] = target: T1, Flag-tagged USP36 C131A (catalytically-inactive mutant) (UniProt Q9P275); assay: co-IP; HEK293T cells co-transfected with His-Snail2 with or without Flag-USP36 WT or C131A; lysed in NETN buffer, precipitated by anti-Flag overnight at 4°C, Western blot
T1 sequence: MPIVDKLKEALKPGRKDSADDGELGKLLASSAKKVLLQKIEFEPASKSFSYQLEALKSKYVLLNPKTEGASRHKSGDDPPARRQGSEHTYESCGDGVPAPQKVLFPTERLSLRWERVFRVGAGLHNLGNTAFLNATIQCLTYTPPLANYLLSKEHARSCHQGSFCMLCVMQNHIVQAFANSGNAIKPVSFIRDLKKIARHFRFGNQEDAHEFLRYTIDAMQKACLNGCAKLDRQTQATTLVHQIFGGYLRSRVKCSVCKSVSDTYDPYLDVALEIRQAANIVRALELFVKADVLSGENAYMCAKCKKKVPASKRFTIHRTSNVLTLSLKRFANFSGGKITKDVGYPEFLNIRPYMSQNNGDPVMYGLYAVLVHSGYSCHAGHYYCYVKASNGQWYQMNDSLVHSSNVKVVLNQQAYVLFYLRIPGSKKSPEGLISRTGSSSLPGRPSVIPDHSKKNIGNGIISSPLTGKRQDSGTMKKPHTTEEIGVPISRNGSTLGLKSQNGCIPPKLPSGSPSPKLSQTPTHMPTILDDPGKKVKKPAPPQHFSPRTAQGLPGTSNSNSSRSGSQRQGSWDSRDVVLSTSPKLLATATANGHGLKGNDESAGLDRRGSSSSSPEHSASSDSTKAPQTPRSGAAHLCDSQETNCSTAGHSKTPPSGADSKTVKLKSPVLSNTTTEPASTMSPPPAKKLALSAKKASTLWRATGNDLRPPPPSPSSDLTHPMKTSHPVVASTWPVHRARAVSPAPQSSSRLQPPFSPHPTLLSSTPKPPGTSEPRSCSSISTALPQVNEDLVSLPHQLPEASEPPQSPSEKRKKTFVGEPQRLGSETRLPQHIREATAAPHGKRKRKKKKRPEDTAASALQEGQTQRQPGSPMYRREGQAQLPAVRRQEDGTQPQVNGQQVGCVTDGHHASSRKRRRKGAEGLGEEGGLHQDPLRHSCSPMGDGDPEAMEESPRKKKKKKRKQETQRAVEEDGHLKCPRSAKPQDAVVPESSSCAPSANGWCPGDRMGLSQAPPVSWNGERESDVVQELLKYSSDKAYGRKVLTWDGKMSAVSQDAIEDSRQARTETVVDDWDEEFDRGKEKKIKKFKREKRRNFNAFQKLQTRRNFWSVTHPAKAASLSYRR

[2] = target: T2, Flag-tagged USP36 wild type (UniProt Q9P275); assay: as above
T2 sequence: T1 sequence with A131C

[3] = target: T3, endogenous USP36 (human (endogenous in U87MG and U251)) (UniProt Q9P275); assay: co-IP; reciprocal co-immunoprecipitation of the endogenous proteins from U87MG and U251 lysates; NETN buffer, overnight at 4°C, Western blot
T3 sequence: T1 sequence with A131C

B1: His-tagged Snail2 (protein, UniProt O43623 1-268)
chain: MPRSFLVKKHFNASKKPNYSELDTHTVIISPYLYESYSMPVIPQPEILSSGAYSPITVWTTAAPFHAQLPNGLSPLSGYSSSLGRVSPPPPSDTSSKDHSGSESPISDEEERLQSKLSDPHAIEAEKFQCNLCNKTYSTFSGLAKHKQLHCDAQSRKSFSCKYCDKEYVSLGALKMHIRTHTLPCVCKICGKAFSRPWLLQGHIRTHTGEKPFSCPHCNRAFADRSNLRAHLQTHSDVKKYQCKNCSKTFSRMSLLHKHEESGCCVAH
B1 was tested, and the binding [1] was “binds” and the binding [2] was “binds”.

B2: endogenous Snail2 (protein, UniProt O43623 1-268)
chain: B1 chain
For B2, the binding [3] was “binds”.
